Measurements: article PMC4904303
No constants are given. Whether binding was seen depends on the method and setting. Binding seen in cells or lysates may run through a third protein. A result given as binding can be weak or reduced; the word gives no strength. Where a sequence is shown, tags or fusion partners need not be part of it.

What was measured:
[1] = biological target: FLAG-tagged Vpx 40-112 (N-terminally deleted Vpx) (HIV-2); assay: co-IP; HEK293T cells co-transfected with HA-H11 (or mutants) and FLAG-Vpx (or deletion mutants), 20 uM MG132 4 h before harvest; lysis in 50 mM Tris-HCl pH 8.0, 150 mM NaCl, 1 mM EDTA, 1 mM DTT; anti-FLAG M2 or anti-HA affinity gel; western blot
[2] = biological target: FLAG-tagged Vpx 1-90 (C-terminally deleted Vpx) (HIV-2); assay: as above

B1: HA-tagged wild type H11, expressed in HEK293T cells (protein, UniProt Q9UJY1 1-196)
chain: MADGQMPFSCHYPSRLRRDPFRDSPLSSRLLDDGFGMDPFPDDLTASWPDWALPRLSSAWPGTLRSGMVPRGPTATARFGVPAEGRTPPPFPGEPWKVCVNVHSFKPEELMVKTKDGYVEVSGKHEEKQQEGGIVSKNFTKKIQLPAEVDPVTVFASLSPEGLLIIEAPQVPPYSTFGESSFNNELPQDSQEVTCT
Question: For B1, which binding [1] is on record?
Answer: The binding was “binds”.

Question: What about the binding [2] of the same binder?
Answer: Its binding is “binds”.
